Our source for the binding values is paper PMC4667271, “Discovery of a Novel Inhibitor of the Protein Tyrosine Phosphatase Shp2” (Scientific Reports, 2015).

The experiment concerns the target T1, Gab1 (human (endogenous in HEK293T and MDA-MB-231)) (UniProt Q13480).
T1 sequence (chain, tyrosine-phosphorylated (pY-Gab1) in EGF-stimulated cells; sites not stated): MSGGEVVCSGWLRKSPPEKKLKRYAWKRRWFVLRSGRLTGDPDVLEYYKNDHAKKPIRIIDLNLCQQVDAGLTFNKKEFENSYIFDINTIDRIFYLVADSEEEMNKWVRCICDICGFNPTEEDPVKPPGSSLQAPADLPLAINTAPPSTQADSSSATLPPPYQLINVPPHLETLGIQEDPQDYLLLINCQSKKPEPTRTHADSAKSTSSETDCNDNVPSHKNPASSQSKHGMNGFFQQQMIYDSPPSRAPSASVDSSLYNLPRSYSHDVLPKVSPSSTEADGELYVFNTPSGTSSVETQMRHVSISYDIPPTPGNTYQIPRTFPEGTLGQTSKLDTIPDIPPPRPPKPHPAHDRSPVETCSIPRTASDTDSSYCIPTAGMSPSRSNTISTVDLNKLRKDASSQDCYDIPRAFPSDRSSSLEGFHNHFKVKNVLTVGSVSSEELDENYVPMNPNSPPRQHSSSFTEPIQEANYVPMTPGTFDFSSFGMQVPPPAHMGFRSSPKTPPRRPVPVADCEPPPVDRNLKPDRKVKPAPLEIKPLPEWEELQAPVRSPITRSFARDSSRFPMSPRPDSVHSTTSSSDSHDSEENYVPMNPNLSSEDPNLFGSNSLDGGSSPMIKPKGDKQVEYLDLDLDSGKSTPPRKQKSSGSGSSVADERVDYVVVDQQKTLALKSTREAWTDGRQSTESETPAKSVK
Description: co-IP; HEK293T cells serum-starved 18 h, with or without Fumos (20 uM, 24 h), then EGF (20 ng/ml, 5 min), or Fumos alone; lysate supernatant immunoprecipitated with antibody against Shp2 or Gab1 and Protein A/G PLUS-Agarose at 4 C; immunoblot for Gab1, RasGAP, pY and Shp2. Background: Immunoblotting shows a protein as a band on a membrane.

These are yes or no findings as the source states them, for the method shown. In cells and extracts the contact can be indirect. Some results given as binding are weak or reduced against the parent protein; the word gives no strength.

B1: RasGAP (protein, UniProt P20936 1-1047)
chain: MMAAEAGSEEGGPVTAGAGGGGAAAGSSAYPAVCRVKIPAALPVAAAPYPGLVETGVAGTLGGGAALGSEFLGAGSVAGALGGAGLTGGGTAAGVAGAAAGVAGAAVAGPSGDMALTKLPTSLLAETLGPGGGFPPLPPPPYLPPLGAGLGTVDEGDSLDGPEYEEEEVAIPLTAPPTNQWYHGKLDRTIAEERLRQAGKSGSYLIRESDRRPGSFVLSFLSQMNVVNHFRIIAMCGDYYIGGRRFSSLSDLIGYYSHVSCLLKGEKLLYPVAPPEPVEDRRRVRAILPYTKVPDTDEISFLKGDMFIVHNELEDGWMWVTNLRTDEQGLIVEDLVEEVGREEDPHEGKIWFHGKISKQEAYNLLMTVGQVCSFLVRPSDNTPGDYSLYFRTNENIQRFKICPTPNNQFMMGGRYYNSIGDIIDHYRKEQIVEGYYLKEPVPMQDQEQVLNDTVDGKEIYNTIRRKTKDAFYKNIVKKGYLLKKGKGKRWKNLYFILEGSDAQLIYFESEKRATKPKGLIDLSVCSVYVVHDSLFGRPNCFQIVVQHFSEEHYIFYFAGETPEQAEDWMKGLQAFCNLRKSSPGTSNKRLRQVSSLVLHIEEAHKLPVKHFTNPYCNIYLNSVQVAKTHAREGQNPVWSEEFVFDDLPPDINRFEITLSNKTKKSKDPDILFMRCQLSRLQKGHATDEWFLLSSHIPLKGIEPGSLRVRARYSMEKIMPEEEYSEFKELILQKELHVVYALSHVCGQDRTLLASILLRIFLHEKLESLLLCTLNDREISMEDEATTLFRATTLASTLMEQYMKATATQFVHHALKDSILKIMESKQSCELSPSKLEKNEDVNTNLTHLLNILSELVEKIFMASEILPPTLRYIYGCLQKSVQHKWPTNTTMRTRVVSGFVFLRLICPAILNPRMFNIISDSPSPIAARTLILVAKSVQNLANLVEFGAKEPYMEGVNPFIKSNKHRMIMFLDELGNVPELPDTTEHSRTDLSRDLAALHEICVAHSDELRTLSNERGAQQHVLKKLLAITELLQQKQNQYTKTNDVR
Consider B1, for which the binding entry is “binds”.
